Our source for the binding values is article PMC4895231.

The chains behind the UniProt entries cited, without tags or fusion partners. Residues count along the entry.
UniProt P15941, residues 24-1255: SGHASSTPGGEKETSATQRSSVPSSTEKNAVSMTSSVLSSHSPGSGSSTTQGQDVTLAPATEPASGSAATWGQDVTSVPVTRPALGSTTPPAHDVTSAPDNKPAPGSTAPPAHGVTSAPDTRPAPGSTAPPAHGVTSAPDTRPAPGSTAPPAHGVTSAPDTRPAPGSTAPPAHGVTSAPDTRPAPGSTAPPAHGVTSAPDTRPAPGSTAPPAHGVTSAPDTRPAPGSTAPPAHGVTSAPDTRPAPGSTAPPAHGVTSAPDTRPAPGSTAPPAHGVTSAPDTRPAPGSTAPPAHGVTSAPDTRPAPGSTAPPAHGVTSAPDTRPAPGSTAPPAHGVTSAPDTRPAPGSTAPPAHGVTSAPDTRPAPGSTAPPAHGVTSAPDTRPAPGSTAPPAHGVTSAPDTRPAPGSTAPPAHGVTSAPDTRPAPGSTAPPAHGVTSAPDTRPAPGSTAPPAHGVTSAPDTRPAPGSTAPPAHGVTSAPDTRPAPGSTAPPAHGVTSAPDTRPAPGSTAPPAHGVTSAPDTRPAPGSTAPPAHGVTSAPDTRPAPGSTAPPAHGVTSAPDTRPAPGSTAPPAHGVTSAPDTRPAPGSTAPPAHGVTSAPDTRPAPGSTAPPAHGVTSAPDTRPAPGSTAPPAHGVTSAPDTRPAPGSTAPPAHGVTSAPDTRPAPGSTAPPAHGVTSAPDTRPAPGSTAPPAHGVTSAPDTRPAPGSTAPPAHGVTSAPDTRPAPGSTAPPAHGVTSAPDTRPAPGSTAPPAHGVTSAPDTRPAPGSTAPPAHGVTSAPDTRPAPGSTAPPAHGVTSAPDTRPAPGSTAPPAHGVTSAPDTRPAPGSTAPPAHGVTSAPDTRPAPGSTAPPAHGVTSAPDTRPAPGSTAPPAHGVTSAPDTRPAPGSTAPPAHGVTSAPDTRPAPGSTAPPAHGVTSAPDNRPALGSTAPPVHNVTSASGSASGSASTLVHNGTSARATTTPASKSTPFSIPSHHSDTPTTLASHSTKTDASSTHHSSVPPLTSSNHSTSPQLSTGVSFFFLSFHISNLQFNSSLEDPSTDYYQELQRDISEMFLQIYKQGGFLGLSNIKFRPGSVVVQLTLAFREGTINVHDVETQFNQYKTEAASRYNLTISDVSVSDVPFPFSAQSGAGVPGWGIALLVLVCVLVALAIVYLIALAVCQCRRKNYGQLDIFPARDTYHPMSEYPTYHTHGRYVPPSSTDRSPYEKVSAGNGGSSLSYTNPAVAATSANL
UniProt P61073: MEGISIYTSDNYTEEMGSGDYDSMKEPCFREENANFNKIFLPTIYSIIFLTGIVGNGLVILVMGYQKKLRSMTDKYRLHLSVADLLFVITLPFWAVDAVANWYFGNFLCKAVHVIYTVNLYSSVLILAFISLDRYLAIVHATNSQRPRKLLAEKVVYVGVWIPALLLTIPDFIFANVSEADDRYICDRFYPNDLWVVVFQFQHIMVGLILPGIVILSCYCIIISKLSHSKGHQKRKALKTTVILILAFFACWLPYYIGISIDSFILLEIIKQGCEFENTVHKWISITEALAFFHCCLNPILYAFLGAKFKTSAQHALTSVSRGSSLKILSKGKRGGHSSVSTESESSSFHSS

Test [1] deals with MUC1 (endogenous, NCI-H292 cells) (human (endogenous in NCI-H292)) (UniProt P15941). Kind of test: co-IP; NCI-H292 cells transfected with wild-type CXCR4 (or siRNA-CXCR4), CXCL12 for 4 hours; lysis in 25 mM HEPES, 150 mM NaCl, 0.5% NP-40, 1 mM EDTA, 1 mM EGTA; IP with anti-total-MUC1 or anti-CXCR4 on Dynabeads Protein G at 4 °C, blot with anti-CXCR4 or anti-total-MUC1.
Test [2] concerns the target CXCR4, chemokine (C-X-C motif) receptor 4, wild type (UniProt P61073). Described as above.

Results are given in words; binding and its absence hold for the method and conditions named. Binding seen in cells or lysates may run through a third protein. Some binding calls cover weakened binding; strength is not graded here.

With “CXCR4, chemokine (C-X-C motif) receptor 4, wild type (from UniProt P61073 1-352)”, in test [1], the binding entry is on record as “binds”.

“MUC1 (endogenous, NCI-H292 cells) (from UniProt P15941 24-1255)”: the binding entry in test [2] is given as “binds”.
